# Results taken from the supplement of paper PMC8728848.
# Some of the results follow.
# Key:
# Assay in all cases: glycan array binding signal (z-score within array); higher = stronger binding
# Details in all cases: glycan notation: IUPAC condensed, linker removed
# [1] = target: Neu5Ac(a2-3)Gal(b1-3)GalNAc
# Summary of the method: (§1)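 Glycan array data came from 3228 arrays in the Consortium for Functional Glycomics database, and only arrays with an available protein sequence were kept. Glycan names were put into IUPAC-condensed notation, and columns mapping to the same glycan were averaged. The binding signal is a within-array Z-score, averaged across arrays of one protein sequence run at different concentrations or buffers and across linkers. A negative Z-score can be read as non-binding.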
# [2] = target: Neu5Ac(a2-3)Gal(b1-3)GalNAc(b1-3)Gal(a1-4)Gal(b1-4)Glc
# Summary of the method: as §1
# [3] = target: Neu5Ac(a2-3)Gal(b1-3)GalNAc(b1-4)[Neu5Ac(a2-3)]Gal(b1-4)Glc
# Summary of the method: as §1
# [4] = target: Neu5Ac(a2-3)Gal(b1-3)GalNAc(b1-4)[Neu5Ac(a2-8)Neu5Ac(a2-3)]Gal(b1-4)Glc
# Summary of the method: as §1
# [5] = target: Neu5Ac(a2-3)Gal(b1-3)GalNAc6S
# Summary of the method: as §1
# [6] = target: Neu5Ac(a2-3)Gal(b1-3)GlcNAc
# Summary of the method: as §1
# [7] = target: Neu5Ac(a2-3)Gal(b1-3)GlcNAc(b1-2)Man
# Summary of the method: as §1
# [8] = target: Neu5Ac(a2-3)Gal(b1-3)GlcNAc(b1-2)Man(a1-3)[GlcNAc(b1-4)][Neu5Ac(a2-3)Gal(b1-3)GlcNAc(b1-2)Man(a1-6)]Man(b1-4)GlcNAc(b1-4)GlcNAc
# Summary of the method: as §1
# [9] = target: Neu5Ac(a2-3)Gal(b1-3)GlcNAc(b1-2)Man(a1-3)[Neu5Ac(a2-3)Gal(b1-3)GlcNAc(b1-2)Man(a1-6)]Man(b1-4)GlcNAc(b1-4)GlcNAc
# Summary of the method: as §1
# [10] = target: Neu5Ac(a2-3)Gal(b1-3)GlcNAc(b1-2)[Neu5Ac(a2-3)Gal(b1-3)GlcNAc(b1-4)]Man(a1-6)[Neu5Ac(a2-3)Gal(b1-3)GlcNAc(b1-2)Man(a1-3)]Man(b1-4)GlcNAc(b1-4)GlcNAc
# Summary of the method: as §1
# [11] = target: Neu5Ac(a2-3)Gal(b1-3)GlcNAc(b1-3)Gal(b1-3)GlcNAc
# Summary of the method: as §1
# [12] = target: Neu5Ac(a2-3)Gal(b1-3)GlcNAc(b1-3)Gal(b1-4)GlcNAc
# Summary of the method: as §1
# [13] = target: Neu5Ac(a2-3)Gal(b1-3)GlcNAc(b1-3)GalNAc
# Summary of the method: as §1
# [14] = target: Neu5Ac(a2-3)Gal(b1-3)GlcNAc(b1-4)Gal(b1-4)Glc
# Summary of the method: as §1
# [15] = target: Neu5Ac(a2-3)Gal(b1-3)GlcNAc(b1-6)GalNAc
# Summary of the method: as §1
# [16] = target: Neu5Ac(a2-3)Gal(b1-3)GlcNAc6S
# Summary of the method: as §1
# [17] = target: Neu5Ac(a2-3)Gal(b1-3)[Fuc(a1-4)]GlcNAc
# Summary of the method: as §1
# [18] = target: Neu5Ac(a2-3)Gal(b1-3)[Fuc(a1-4)]GlcNAc(b1-3)Gal(b1-3)[Fuc(a1-4)]GlcNAc
# Summary of the method: as §1
# [19] = target: Neu5Ac(a2-3)Gal(b1-3)[Fuc(a1-4)]GlcNAc(b1-3)Gal(b1-4)[Fuc(a1-3)]GlcNAc
# Summary of the method: as §1
# [20] = target: Neu5Ac(a2-3)Gal(b1-3)[GlcNAc(b1-6)]GalNAc
# Summary of the method: as §1
# [21] = target: Neu5Ac(a2-3)Gal(b1-3)[Neu5Ac(a2-6)]GalNAc
# Summary of the method: as §1
# [22] = target: Neu5Ac(a2-3)Gal(b1-3)[Neu5Ac(a2-6)]GlcNAc(b1-3)[Fuc(a1-3)[Gal(b1-4)]GlcNAc(b1-6)]Gal(b1-4)Glc
# Summary of the method: as §1
# [23] = target: Neu5Ac(a2-3)Gal(b1-3)]Neu5Ac(a2-3)Gal(b1-4)]GlcNAc
# Summary of the method: as §1
# [24] = target: Neu5Ac(a2-3)Gal(b1-4)Glc
# Summary of the method: as §1
# [25] = target: Neu5Ac(a2-3)Gal(b1-4)GlcNAc
# Summary of the method: as §1
# [26] = target: Neu5Ac(a2-3)Gal(b1-4)GlcNAc(b1-2)Man
# Summary of the method: as §1
# [27] = target: Neu5Ac(a2-3)Gal(b1-4)GlcNAc(b1-2)Man(a1-3)[GlcNAc(b1-4)][Neu5Ac(a2-3)Gal(b1-4)GlcNAc(b1-2)Man(a1-6)]Man(b1-4)GlcNAc(b1-4)GlcNAc
# Summary of the method: as §1
# [28] = target: Neu5Ac(a2-3)Gal(b1-4)GlcNAc(b1-2)Man(a1-3)[Neu5Ac(a2-3)Gal(b1-4)GlcNAc(b1-2)Man(a1-6)]Man(b1-4)GlcNAc(b1-4)GlcNAc
# Summary of the method: as §1
# [29] = target: Neu5Ac(a2-3)Gal(b1-4)GlcNAc(b1-2)Man(a1-3)[Neu5Ac(a2-3)Gal(b1-4)GlcNAc(b1-2)Man(a1-6)]Man(b1-4)GlcNAc(b1-4)[Fuc(a1-6)]GlcNAc
# Summary of the method: as §1
# [30] = target: Neu5Ac(a2-3)Gal(b1-4)GlcNAc(b1-2)Man(a1-3)[Neu5Ac(a2-6)Gal(b1-4)GlcNAc(b1-2)Man(a1-6)]Man(b1-4)GlcNAc(b1-4)GlcNAc
# Summary of the method: as §1
# [31] = target: Neu5Ac(a2-3)Gal(b1-4)GlcNAc(b1-2)[Neu5Ac(a2-3)Gal(b1-4)GlcNAc(b1-4)]Man(a1-3)[GlcNAc(b1-4)][Neu5Ac(a2-3)Gal(b1-4)GlcNAc(b1-2)[Neu5Ac(a2-3)Gal(b1-4)GlcNAc(b1-6)]Man(a1-6)]Man(b1-4)GlcNAc(b1-4)GlcNAc
# Summary of the method: as §1
# [32] = target: Neu5Ac(a2-3)Gal(b1-4)GlcNAc(b1-2)[Neu5Ac(a2-3)Gal(b1-4)GlcNAc(b1-4)]Man(a1-3)[GlcNAc(b1-4)][Neu5Ac(a2-3)Gal(b1-4)GlcNAc(b1-4)Man(a1-6)]Man(b1-4)GlcNAc(b1-4)GlcNAc
# Summary of the method: as §1
# [33] = target: Neu5Ac(a2-3)Gal(b1-4)GlcNAc(b1-2)[Neu5Ac(a2-3)Gal(b1-4)GlcNAc(b1-6)]Man(a1-6)[Neu5Ac(a2-3)Gal(b1-4)GlcNAc(b1-2)Man(a1-3)][GlcNAc(b1-4)]Man(b1-4)GlcNAc(b1-4)GlcNAc
# Summary of the method: as §1
# [34] = target: Neu5Ac(a2-3)Gal(b1-4)GlcNAc(b1-3)Gal
# Summary of the method: as §1
# [35] = target: Neu5Ac(a2-3)Gal(b1-4)GlcNAc(b1-3)Gal(b1-3)GlcNAc
# Summary of the method: as §1
# [36] = target: Neu5Ac(a2-3)Gal(b1-4)GlcNAc(b1-3)Gal(b1-4)GlcNAc
# Summary of the method: as §1
# [37] = target: Neu5Ac(a2-3)Gal(b1-4)GlcNAc(b1-3)Gal(b1-4)GlcNAc(b1-2)Man(a1-3)[Neu5Ac(a2-3)Gal(b1-4)GlcNAc(b1-3)Gal(b1-4)GlcNAc(b1-2)Man(a1-6)]Man(b1-4)GlcNAc(b1-4)GlcNAc
# Summary of the method: as §1
# [38] = target: Neu5Ac(a2-3)Gal(b1-4)GlcNAc(b1-3)Gal(b1-4)GlcNAc(b1-3)Gal(b1-4)GlcNAc
# Summary of the method: as §1
# [39] = target: Neu5Ac(a2-3)Gal(b1-4)GlcNAc(b1-3)Gal(b1-4)GlcNAc(b1-3)Gal(b1-4)GlcNAc(b1-2)Man(a1-3)[Neu5Ac(a2-3)Gal(b1-4)GlcNAc(b1-3)Gal(b1-4)GlcNAc(b1-3)Gal(b1-4)GlcNAc(b1-2)Man(a1-6)]GalNAc
# Summary of the method: as §1
# [40] = target: Neu5Ac(a2-3)Gal(b1-4)GlcNAc(b1-3)Gal(b1-4)GlcNAc(b1-3)GalNAc
# Summary of the method: as §1
# [41] = target: Neu5Ac(a2-3)Gal(b1-4)GlcNAc(b1-3)Gal(b1-4)GlcNAc(b1-3)[Neu5Ac(a2-3)Gal(b1-4)GlcNAc(b1-3)Gal(b1-4)GlcNAc(b1-6)]GalNAc
# Summary of the method: as §1
# [42] = target: Neu5Ac(a2-3)Gal(b1-4)GlcNAc(b1-3)Gal(b1-4)GlcNAc(b1-6)[Gal(b1-3)]GalNAc
# Summary of the method: as §1
# [43] = target: Neu5Ac(a2-3)Gal(b1-4)GlcNAc(b1-3)Gal(b1-4)[Fuc(a1-3)]GlcNAc
# Summary of the method: as §1
# [44] = target: Neu5Ac(a2-3)Gal(b1-4)GlcNAc(b1-3)GalNAc
# Summary of the method: as §1
# [45] = target: Neu5Ac(a2-3)Gal(b1-4)GlcNAc(b1-3)[Neu5Ac(a2-3)Gal(b1-4)GlcNAc(b1-6)]GalNAc
# Summary of the method: as §1
binder,measurement,setting,value
PhypaEULS3 (Physcomitrella patens) (protein) MLPVRLHCKADPNFNLAAVPGQGPVMVPFSPNDDFQVWYKDVTMSTRVKDETGSSAFSLINKATGQALRHAPEDLAQCLLADYDSNALDQTVLWTMSEDMGQGYCCIRLASQITRNLDVFRGDKKSGGVKEGSPVITFAWKKQDNQIWKMITAILEQKLISEEDLNSAVDHHHHHH,glycan array binding signal (z-score),[1],1.32
same,glycan array binding signal (z-score),[2],-0.139
same,glycan array binding signal (z-score),[3],0.084
same,glycan array binding signal (z-score),[4],0.059
same,glycan array binding signal (z-score),[5],1.77
same,glycan array binding signal (z-score),[6],0.05
same,glycan array binding signal (z-score),[7],-0.422
same,glycan array binding signal (z-score),[8],0.246
same,glycan array binding signal (z-score),[9],0.929
same,glycan array binding signal (z-score),[10],0.414
same,glycan array binding signal (z-score),[11],-0.609
same,glycan array binding signal (z-score),[12],-0.749
same,glycan array binding signal (z-score),[13],0.605
same,glycan array binding signal (z-score),[14],-0.177
same,glycan array binding signal (z-score),[15],-0.065
same,glycan array binding signal (z-score),[16],0.945
same,glycan array binding signal (z-score),[17],-1.21
same,glycan array binding signal (z-score),[18],2.06
same,glycan array binding signal (z-score),[19],-1.62
same,glycan array binding signal (z-score),[20],3.83
same,glycan array binding signal (z-score),[21],0.019
same,glycan array binding signal (z-score),[22],-0.632
same,glycan array binding signal (z-score),[23],0.062
same,glycan array binding signal (z-score),[24],-1.66
same,glycan array binding signal (z-score),[25],0.412
same,glycan array binding signal (z-score),[26],0.361
same,glycan array binding signal (z-score),[27],0.227
same,glycan array binding signal (z-score),[28],-1.5
same,glycan array binding signal (z-score),[29],0.319
same,glycan array binding signal (z-score),[30],-0.658
same,glycan array binding signal (z-score),[31],0.573
same,glycan array binding signal (z-score),[32],0.468
same,glycan array binding signal (z-score),[33],0.048
same,glycan array binding signal (z-score),[34],-0.235
same,glycan array binding signal (z-score),[35],0.682
same,glycan array binding signal (z-score),[36],-1.22
same,glycan array binding signal (z-score),[37],0.872
same,glycan array binding signal (z-score),[38],0.343
same,glycan array binding signal (z-score),[39],-1.07
same,glycan array binding signal (z-score),[40],1.11
same,glycan array binding signal (z-score),[41],-0.939
same,glycan array binding signal (z-score),[42],0.376
same,glycan array binding signal (z-score),[43],-1.15
same,glycan array binding signal (z-score),[44],0.783
same,glycan array binding signal (z-score),[45],-1.24

# As a working copy, some entries already given.
binder,measurement,setting,value
PhypaEULS3 (Physcomitrella patens) (protein) MLPVRLHCKADPNFNLAAVPGQGPVMVPFSPNDDFQVWYKDVTMSTRVKDETGSSAFSLINKATGQALRHAPEDLAQCLLADYDSNALDQTVLWTMSEDMGQGYCCIRLASQITRNLDVFRGDKKSGGVKEGSPVITFAWKKQDNQIWKMITAILEQKLISEEDLNSAVDHHHHHH,glycan array binding signal (z-score),[24],-1.66
same,glycan array binding signal (z-score),[25],0.412
